From paper PMC11005415
These are yes or no findings as the source states them, for the method shown. Binding seen in cells or lysates may run through a third protein. Some results given as binding are weak or reduced against the parent protein; the word gives no strength. Sequences can lack the tags named with a protein.

Molecular target: T1, Cactin-V5 (Drosophila melanogaster) (UniProt Q9VR99)
T1 sequence: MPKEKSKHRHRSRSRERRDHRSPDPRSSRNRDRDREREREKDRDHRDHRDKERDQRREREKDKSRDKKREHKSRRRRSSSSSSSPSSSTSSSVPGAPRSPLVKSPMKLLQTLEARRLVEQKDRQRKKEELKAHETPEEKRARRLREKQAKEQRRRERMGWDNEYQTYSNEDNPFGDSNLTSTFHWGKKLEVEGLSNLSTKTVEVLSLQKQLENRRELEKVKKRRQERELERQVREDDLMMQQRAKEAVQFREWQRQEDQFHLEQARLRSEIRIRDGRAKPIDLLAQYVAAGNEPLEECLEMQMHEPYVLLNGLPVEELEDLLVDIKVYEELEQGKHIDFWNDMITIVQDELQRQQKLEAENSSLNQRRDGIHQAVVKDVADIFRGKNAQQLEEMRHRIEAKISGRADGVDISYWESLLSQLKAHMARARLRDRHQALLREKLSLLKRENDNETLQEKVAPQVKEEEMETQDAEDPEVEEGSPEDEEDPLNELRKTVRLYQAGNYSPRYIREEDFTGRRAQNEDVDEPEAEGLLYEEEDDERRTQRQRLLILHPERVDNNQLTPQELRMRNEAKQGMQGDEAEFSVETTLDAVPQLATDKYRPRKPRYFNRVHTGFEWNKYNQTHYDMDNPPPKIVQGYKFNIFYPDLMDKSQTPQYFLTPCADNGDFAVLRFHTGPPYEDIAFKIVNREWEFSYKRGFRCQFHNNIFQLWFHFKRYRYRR
Assay: co-IP; S2 cells co-transfected with Cactin-V5 and PGK-Flag, uninfected or infected with DCV (MOI = 1, 48 h); lysis buffer 2 mM EDTA, 50 mM Tris-HCl pH 7.4, 150 mM NaCl, 1% NP-40, 20% glycerol; anti-V5 antibody with Protein A/G Agarose, 4°C; blots with anti-V5 and anti-Flag

binding: binds
B1: PGK-Flag (enzyme, UniProt Q01604 1-415)
chain: MAFNKLSIENLDLAGKRVLMRVDFNVPIKEGKITSNQRIVAALDSIKLALSKKAKSVVLMSHLGRPDGNKNIKYTLAPVAAELKTLLGQDVIFLSDCVGSEVEAACKDPAPGSVILLENVRFYVEEEGKGLDASGGKVKADPAKVKEFRASLAKLGDVYVNDAFGTAHRAHSSMMGDGFEQRAAGLLLNKELKYFSQALDKPPNPFLAILGGAKVADKIQLIENLLDKVNEMIIGGGMAFTFLKVLNNMKIGGSLFDEEGSKIVEKLVEKAKKNNVQLHLPVDFVCGDKFAENAAVSEATVEAGIPDGHMGLDVGPKTRELFAAPIARAKLIVWNGPPGVFEFPNFANGTKSIMDGVVAATKNGTVSIIGGGDTASCCAKWNTEALVSHVSTGGGASLELLEGKTLPGVAALTSA
